PubChem BioAssay AID686943, Drosophila RNAi Screening Center, 2013

- Aim: 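Knockdowns that increase or decrease active ERK after insulin receptor stimulation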 (primary screen)
- System: Drosophila S2R+ haemocyte-like cells expressing YFP-tagged ERK (Rolled)
- Reagent: long dsRNA against Drosophila genes
- Treatment: insulin stimulation versus unstimulated cells; dose and duration not given
- Detection: 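Per-plate z-scores of phospho-ERK immunostaining normalised to YFP-tagged ERK, measured with and without insulin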
- Scale: replicate 1, z-score of dpERK with insulin and replicate 2, z-score of dpERK with insulin: higher = more active ERK per ERK-YFP after insulin
The screen tested about 23,000 reagents; this is an unselected part of those that have a named target and a result. 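Extra replicates exist only for a retested subset of genes; insulin dose and duration not given; both raised and lowered dpERK matter.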 Reagents against one gene are numbered here. Names joined by + are all predicted targets of the reagent. Not all columns of the deposit are shown. Not given: the amount of reagent, the time to read-out.

Against Ddrgk1, the values are replicate 1, z-score of dpERK with insulin -0.27; replicate 2, z-score of dpERK with insulin -0.43. Depletion of Elo68alpha came out at: replicate 1, z-score of dpERK with insulin -0.05; replicate 2, z-score of dpERK with insulin -0.16. eIF3k gave replicate 1, z-score of dpERK with insulin 0.2; replicate 2, z-score of dpERK with insulin 0.86. Against Adss the deposit lists replicate 1, z-score of dpERK with insulin -0.07; replicate 2, z-score of dpERK with insulin 0.14. After knock-down of CG12159, the record shows replicate 1, z-score of dpERK with insulin -0.73; replicate 2, z-score of dpERK with insulin -0.1. After knock-down of Treh, the record shows replicate 1, z-score of dpERK with insulin 0.72; replicate 2, z-score of dpERK with insulin 0.16.

Rme-8 scored replicate 1, z-score of dpERK with insulin 0.4; replicate 2, z-score of dpERK with insulin 0.8. Cbp80 scored replicate 1, z-score of dpERK with insulin -0.2; replicate 2, z-score of dpERK with insulin 0.42. With knock-down of CG5013, the record shows replicate 1, z-score of dpERK with insulin -0.01; replicate 2, z-score of dpERK with insulin 3.06. Silencing of nAChRalpha2 resulted in: replicate 1, z-score of dpERK with insulin -0.8; replicate 2, z-score of dpERK with insulin 0.78. For SF1, the values are replicate 1, z-score of dpERK with insulin 1.21; replicate 2, z-score of dpERK with insulin 1.7. With knock-down of CG43327 + CG43328 the results were replicate 1, z-score of dpERK with insulin 0.15; replicate 2, z-score of dpERK with insulin 0.45.

Silencing of lncRNA:CR43337 came out at: replicate 1, z-score of dpERK with insulin 1.07; replicate 2, z-score of dpERK with insulin 2.1. After knock-down of Srp54, the screen gave replicate 1, z-score of dpERK with insulin -1.9; replicate 2, z-score of dpERK with insulin -0.75. With knock-down of UQCR-6.4, the record shows replicate 1, z-score of dpERK with insulin 0.79; replicate 2, z-score of dpERK with insulin -0.01. After knock-down of barr the results were replicate 1, z-score of dpERK with insulin 0.87; replicate 2, z-score of dpERK with insulin -0.33. Depletion of CG13722 #1 gave: replicate 1, z-score of dpERK with insulin 0.48; replicate 2, z-score of dpERK with insulin 0.37. CG13722 #2 showed replicate 1, z-score of dpERK with insulin 0.41; replicate 2, z-score of dpERK with insulin -0.82.

Against CG1074, the entry reads replicate 1, z-score of dpERK with insulin 0.17; replicate 2, z-score of dpERK with insulin -0.06. ND-B14.5B gave replicate 1, z-score of dpERK with insulin 0.13; replicate 2, z-score of dpERK with insulin -1.05. CG7992 scored replicate 1, z-score of dpERK with insulin -1.85; replicate 2, z-score of dpERK with insulin 0.07. For PIG-C the deposit lists replicate 1, z-score of dpERK with insulin -0.47; replicate 2, z-score of dpERK with insulin -0.2. Silencing of ppk12 gave: replicate 1, z-score of dpERK with insulin -1.9; replicate 2, z-score of dpERK with insulin -1.69. After knock-down of MFS1 the results were replicate 1, z-score of dpERK with insulin 0.35; replicate 2, z-score of dpERK with insulin -0.42.

For ATPsyngamma the deposit lists replicate 1, z-score of dpERK with insulin -0.06; replicate 2, z-score of dpERK with insulin -0.33. Silencing of wrd #1 resulted in: replicate 1, z-score of dpERK with insulin 0.84; replicate 2, z-score of dpERK with insulin -2.65. Silencing of wrd #2 resulted in: replicate 1, z-score of dpERK with insulin 0.05; replicate 2, z-score of dpERK with insulin -0.04. Against CG44837 #1 the deposit lists replicate 1, z-score of dpERK with insulin -0.96; replicate 2, z-score of dpERK with insulin -2.11. Against CG44837 #2, the values are replicate 1, z-score of dpERK with insulin -0.35; replicate 2, z-score of dpERK with insulin -0.5. For Mst57Da, the values are replicate 1, z-score of dpERK with insulin 0.68; replicate 2, z-score of dpERK with insulin 0.

After knock-down of TM4SF, the screen gave replicate 1, z-score of dpERK with insulin 0.37; replicate 2, z-score of dpERK with insulin -0.68.

Reformatted: 4 of the entries above.
predicted target	reagent	replicate 1, z-score of dpERK with insulin	replicate 2, z-score of dpERK with insulin
Cbp80	1	-0.2	0.42
CG5013	1	-0.01	3.06
nAChRalpha2	1	-0.8	0.78
SF1	1	1.21	1.7
